These are yes or no findings as the source states them, for the method shown. In cells and extracts the contact can be indirect. Here binding means that the protein was enriched with, or labelled near, the bait; the list need not be complete. Sequences can lack the tags named with a protein.

Sequences of proteins named here, by UniProt entry; tags and fusion partners are left off.
UniProt Q07955: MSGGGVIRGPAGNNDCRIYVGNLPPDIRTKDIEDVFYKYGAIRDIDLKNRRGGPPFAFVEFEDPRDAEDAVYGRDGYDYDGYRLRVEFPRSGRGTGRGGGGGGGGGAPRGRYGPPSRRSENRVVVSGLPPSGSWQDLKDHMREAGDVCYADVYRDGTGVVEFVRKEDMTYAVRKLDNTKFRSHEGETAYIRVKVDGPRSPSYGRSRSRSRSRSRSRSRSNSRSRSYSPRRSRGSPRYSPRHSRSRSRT
UniProt Q13242: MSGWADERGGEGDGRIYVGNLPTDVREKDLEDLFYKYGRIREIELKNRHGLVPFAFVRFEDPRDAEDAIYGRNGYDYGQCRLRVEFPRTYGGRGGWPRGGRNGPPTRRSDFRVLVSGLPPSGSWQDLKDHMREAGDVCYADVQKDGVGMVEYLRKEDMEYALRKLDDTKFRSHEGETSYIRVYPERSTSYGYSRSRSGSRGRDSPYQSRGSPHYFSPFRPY

The record followed here is article PMC3747076.

This assay deals with T1, FLAG-tagged Transformer-2β (Tra2β) (human) (UniProt P62995).
T1 sequence: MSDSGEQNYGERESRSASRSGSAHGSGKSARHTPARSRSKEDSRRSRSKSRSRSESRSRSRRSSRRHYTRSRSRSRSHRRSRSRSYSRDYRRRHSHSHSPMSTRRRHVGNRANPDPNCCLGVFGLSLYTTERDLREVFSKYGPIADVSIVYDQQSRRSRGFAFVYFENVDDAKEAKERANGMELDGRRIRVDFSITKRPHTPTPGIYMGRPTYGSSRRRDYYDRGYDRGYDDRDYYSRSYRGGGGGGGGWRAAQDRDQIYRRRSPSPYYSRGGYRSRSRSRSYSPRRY
The experiment in a line: affinity purification with mass spectrometry; anti-FLAG antibody-agarose precipitates of RIPA lysates (with protease, phosphatase and ribonuclease inhibitors) of SH-SY5Y cells expressing FLAG-Tra2β or FLAG alone, overnight at 4°C; SDS-PAGE, silver staining, additional bands cut out and identified by mass spectrometry.

Turning to ASF/SF2 (from UniProt Q07955 1-248), the binding entry is on record as “binds”.
Take SRp30c (from UniProt Q13242 1-221): the binding entry is given as “binds”.
